In all, about 31,000 sequences went through this assay and about 1,400 (4.5%) were called active.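 Rule for the calls: active = median seed-adjusted z-score above 1 or below -1; inactive = the rest.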 This is one part of the list.
Experiment: Novel Modifiers of Survival Motor Neuron (SMN) Protein: Gene Identification via Genome-wide siRNA Screen;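 note: luminescence tracks full-length SMN protein made from the SMN2 reporter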
Details: HEK293T SMN2-luciferase reporter, siRNA knockdown, 72 h; actives lie on both sides
Outline: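 siRNA screen, 10418 genes ×3 siRNAs; 1 pmol/well, lipid reverse transfection into HEK293T SMN2-luc reporter line. 72 h, 37 °C, 5% CO2; ONE-Glo readout. Data: neg-ctrl normalized, log10, MAD; hit = MAD >1.0 or < -1.0.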

Sequence | median seed-adjusted z-score
CACUCAGAGAUGUACAGUUTT against RRM2B | inactive: -0.128
AGGGACUUGUACAGCAAAATT against APOC2 | inactive: -0.0599
GGACAAUGUUGGGAAUAGATT against GPATCH2 | inactive: 0.0828
GGACAACAAAUGGGAAUAATT against GLP2R | inactive: 0.492
GGCACAUUCUGGAGAGCGATT against MAFA | inactive: 0.424
CCCUCACAGUUCACAUUCATT against WFDC1 | inactive: 0.152
GUCUAGGAGACAUUCAUUUTT against ACSM2B | inactive: -0.0401
GGAAUUGUAUGGAGACAUUTT against PTGS1 | inactive: 0.0458
CACCAAAACCUGAACCCAATT against HMGN3 | inactive: -0.182
CAGCCUAUGUGACGGGCUATT against HAS3 | inactive: -0.179
GCAGAUCCACAUGAACAAATT against HDAC9 | inactive: -0.135
GCAUCAAUCGCACCAAGUATT against GPR123 | inactive: 0
GGCUGGACAAUAUCAUUGATT against STAT3 | inactive: 0
CCAUGUAAGCUGUUGGUUUTT against ZNF343 | inactive: 0.0696
UGAAUGCCUUUUUCUCUGATT against RHOG | inactive: -0.354
GUACGUCCAUUUCCCUAAATT against NLRP11 | inactive: 0.181
GAACCAACCUGAAUAUUGATT against PJA1 | inactive: -0.275
GAAGCUGUCGGACUACAAATT against PRDX2 | inactive: -0.359
CCAAGAUUGUCACUCUGGATT against E2F7 | inactive: -0.0972
CAAAAGUAUUCUUAGGAAATT against SLC25A15 | inactive: -0.0116
CCGGGAAUCCUAAUGGGAATT against CES7 | inactive: -0.374
GCCGAUUAGUCUAGAAGUATT against SYNM | inactive: 0.104
GGAGAGCUGUAUAAGAGCUTT against ENO3 | inactive: -0.142

Some values from the entries so far:
Entry for UGAAUGCCUUUUUCUCUGATT against RHOG under median seed-adjusted z-score: inactive: -0.354
Entry for GUACGUCCAUUUCCCUAAATT against NLRP11 under median seed-adjusted z-score: inactive: 0.181
Entry for GCAUCAAUCGCACCAAGUATT against GPR123 under median seed-adjusted z-score: inactive: 0
Entry for GCAGAUCCACAUGAACAAATT against HDAC9 under median seed-adjusted z-score: inactive: -0.135
Entry for GGACAACAAAUGGGAAUAATT against GLP2R under median seed-adjusted z-score: inactive: 0.492

(list continues)

Sequence | median seed-adjusted z-score
GGAAAUCGAUAAUGACUAUTT against FAT2 | inactive: -0.286
GGCAUCCGCAUGUACCAGATT against LRFN3 | inactive: 0.483
GAAUAGCCUUUUAUCGUUUTT against TLR5 | inactive: 0
GGAUGACGAUAAGUCGGAATT against CHD7 | inactive: 0.138
GGACGAAGACUGGUAUAUATT against EHF | inactive: 0.581
CCUCUAACCUUAUUGGAUATT against ZNF10 | inactive: 0
CACGCUAUCUGAUCUUAAATT against PPP2R5E | inactive: 0.421
AGAUCGUCAAGGAUAUCCATT against CAV3 | inactive: 0
CUUCCGUUAUGAUACAGAATT against GABRA2 | inactive: -0.272
GUGUCUUCCUGCAAUAUGATT against FMNL1 | inactive: -0.3
CUAUCAUGGAAGAUGCUGATT against B3GNT4 | inactive: 0.124
ACAUGAGUAUCCAUACGAATT against LOC650864 | inactive: 0.214
GAGCCUCCUCAAAUCCAAATT against SERPING1 | inactive: -0.244
GCUCCUAACGCAUCACAGATT against ZNF605 | inactive: -0.596
CAUGCAAACUAGAUACUUATT against LMX1A | inactive: 0.15
AGAACCUCUUAUGACCUUUTT against RICH2 | inactive: 0.4
CAAAGCCCUUGUUAAGUUUTT against ATP7B | inactive: 0.0947
GCUUGGAGGUGAUUAAGGATT against TRIM9 | inactive: -0.437
CAAUGGUGGUGUGAGUCGATT against KCNA6 | inactive: 0
GCCCAGACCUUGUUCUCUATT against CHRNA1 | inactive: -0.32
GCUGCACACCGAGUACUCATT against STK40 | inactive: -0.555
CCCUCGUCUACUACACUUATT against ABCD4 | inactive: -0.114
CGAGUUCAUCGUGUACUAUTT against RAMP3 | inactive: 0

Sequence | median seed-adjusted z-score
AGAUGUACGCCUUCACUGUTT against NPTX1 | inactive: -0.117
GGCUGAAGCUCUAAAGCGATT against DDX23 | inactive: -0.468
CCAGAUGUAUAGUACUGAUTT against ME1 | inactive: -0.258
GCAUGCUACCUCAAGUCAATT against IL15RA | inactive: -0.0113
CUAUUACUCUUGCAGCUAUTT against TBC1D9 | inactive: -0.0473
GGUCUGGAGUUCAAACUCUTT against TMTC1 | inactive: -0.147
CUACAGGAAUAUUACUUUATT against DCPS | inactive: 0.669
AGACUUUAAGGAGAAAACATT against YAF2 | inactive: 0
CGGUGAUUGUGGAGAUGAATT against MAG | inactive: -0.0667
UCAGCUAUUUCAUCAAAUATT against ZDHHC15 | inactive: 0.548
AGGGAAAUGUCCAAAACAUTT against CYB5A | inactive: 0.226
CAUUUUGAAUGAGAUUGUATT against SLC1A2 | inactive: 0.249
GCAUCGUGCUUCACAACAUTT against RNF152 | inactive: -0.745
CCUGUUACAUUAAGUAGAATT against P2RY5 | inactive: 0.0278
CCCUAUUACCCUAUUCUUATT against RAB6A | inactive: 0.102
GCAAGGGUCUCGGAUUAUATT against TMPRSS12 | inactive: 0.0961
GCCUCAAAGCAGCACCUAATT against DIO3 | inactive: 0.0911
GAGUUCAUGUGAUUCGCAATT against TBX15 | inactive: 0.265
CAAGAGCCCUUGGGACAUATT against LIPI | inactive: 0.65
GCCUAGGUCUCUUAGAUGATT against ATF4 | inactive: 0
AGAAAAACACUUUCCGAAATT against TM7SF2 | inactive: -0.674
CAAUGAACACGGCACGCAATT against UCKL1 | inactive: 0.695
GCAGGUCAGUUAUCAGACUTT against SLC17A1 | inactive: -0.271
